## Results of single-concentration screens

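Whole-parasite assay of Trypanosoma brucei over 72 hours; the read-out is not stated. Concentration: 30 µM. Higher reads as stronger inhibition (inferred: compounds with an IC50 in retests scored well above the rest). Values scatter widely below zero; nearly all retest evidence comes from the higher of the two concentrations used. Of about 64,000 compounds tested this way, about 940 (1.5%) reached 50% or more in at least one test.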

Results are given as percent effect. The record does not define 0% and 100%; most values in the screen are far below 50% and negative numbers occur (in some assays of this library far below -100). The compounds are a random part of those screened.

SMILES	effect
CCS(=O)(=O)NCCNc1c(C#N)cnc2c(F)cc(F)cc12	-16.9
O=C(COCc1ccccc1)N1CCCC1c1noc(C2CC2)n1 (configuration not stated)	-13.61
O=C(NCc1ccco1)N1CCCCC1c1nc(C2CC2)no1 (configuration not stated)	-13.54
Cc1nn(C)c(N(C)C)c1CNCC(O)c1ccccc1F (configuration not stated)	-25.87
O=C(Nc1cccc(-c2cscn2)c1)N1CCC2(CC1)CC(O)CO2 (configuration not stated)	-75.05
O=C(Nc1ccc(-n2cncn2)c(F)c1)C1CCN(C(=O)C2CC2)CC1	-41.36
Cn1cc(CC(=O)N2CCCC(c3cc(C(F)(F)F)[nH]n3)C2)cn1 (configuration not stated)	3.215
CN1CCC(CN(C)C(=O)c2cc(C3CCCN3C)ccn2)CC1 (configuration not stated)	14.83
CCN(CC)c1ccc(C(=O)N2CCCC(n3cncn3)C2)cn1 (configuration not stated)	3.064
[H][C@@]12COC[C@]1(C(=O)NCc1cccs1)CN(C)C2	-17.1
CCc1c(C)nc(C)nc1N1C[C@@H](CN(C)CCN(C)C)[C@@H](CO)C1	2.173
[H][C@]12CCCN(S(=O)(=O)c3ccc(Cl)s3)[C@@]1([H])CN(C(=O)C1CC1)C2	-1.573
Cn1c(CCCNc2nccnc2C#N)nc2ccccc21	-15.7
O=C(Cc1cccs1)NCC(=O)Nc1cn[nH]c1	-42.42
O=C(NCCN1CCCCCC1)c1cccc(Cl)c1Cl	-0.7915
CC(C)c1cc(N(C)Cc2cc(C3CC3)on2)n2nccc2n1	18.13
CC(C)N(CC(N)=O)Cc1csc(Cc2ccccc2)n1	-56.09
CCN1CC2(CCCCN2C(=O)C2CCCCC2)CC1=O (configuration not stated)	-61.12
CC(C)Nc1ncnc2c1CCN(C(=O)c1ccc[nH]1)CC2	23.89
CC(C)Cc1ncc2c(n1)CN(c1cc(N3CCCC3)nc(N)n1)C2	-35.98
O=C(O)C(F)(F)F.[H][C@@]12CNC(=O)[C@H](C)[C@]1([H])CN(CCc1ccccc1)C2	-33.5
CN(CC(F)(F)F)C(=O)CNC(=O)Cc1ccccc1O	4.968
CC(C)(C(=O)NCC1CC1)c1ccccc1F	48.38
CC(c1nccs1)N(C)Cc1ccc(CCC(C)(C)O)cc1 (configuration not stated)	-25.24
CN(CC(=O)NC(C)(C)C)C(=O)C1CC(c2cccc(F)c2)=NO1 (configuration not stated)	-13.21
CCOC(=O)c1nc(COc2c(C)occc2=O)no1	-59.34
COC(=O)N1CCC(NC(=O)CC(C)CCc2ccccc2)CC1 (configuration not stated)	-2.27
N#Cc1ccc(N2CCC3(CC2)CC(OCc2cccnc2)CO3)cc1.O=C(O)C(F)(F)F (configuration not stated)	25.09
Cn1nccc1CCNC(=O)[C@H]1CNC[C@H](C(=O)N2CCCC2)C1	-9.466
Cn1cc(C(=O)NCc2cn3c(n2)CN(CC2CCOC2)CC3)cn1.O=C(O)C(F)(F)F.O=C(O)C(F)(F)F (configuration not stated)	-24.92
CSCCC(=O)N1CCC(c2nccn2Cc2cscn2)CC1	-31.92
Cc1cccc(CN2CCOCC3(CCN(C4CCOCC4)C3)C2)c1.O=C(O)C(F)(F)F.O=C(O)C(F)(F)F (configuration not stated)	52.28
Cc1cc(-c2c(C)c(-c3cnn(C)c3)nc(N)c2C#N)oc1C	-90.42
COCc1cc(CNCc2c(C)n(CC(N)=O)c3ccccc23)n[nH]1	-13.64
CC(C)N1CCCn2nc(C(=O)NCCc3ccccn3)cc2C1	-56.91
Cc1cc(CN2CCN(C(=O)NCc3cccs3)CC2)no1	12.01
Cc1nccc(C(=O)N2CCCN(Cc3cnn(C(C)C)c3)CC2)n1	47.27
CCN1CCCC1CNC(=O)Cc1c(C)n[nH]c1-c1ccc(OC)cc1 (configuration not stated)	-1.431
Cc1ccc(CN2CCC3(CC2)OC(C(=O)N(C)C)c2ccccc23)o1.O=C(O)C(F)(F)F (configuration not stated)	-33.78
O=C(O)CC(NC(=O)c1cc(Br)c[nH]1)c1ccccc1 (configuration not stated)	-3.771
CCS(=O)(=O)N1CCCC2(CCCN2C(=O)c2cn(C)cn2)C1 (configuration not stated)	1.313
c1ccc(-c2nccc(CNCC3CCCN3c3cccnn3)n2)cc1 (configuration not stated)	-60.84
O=C(c1ccc(N2CCCC2)nc1)N1CCCC(c2nccs2)C1 (configuration not stated)	-30.12
CC(C)CCN1CCNC(=O)C1CC(=O)N1CCc2sccc2C1 (configuration not stated)	13.27
CN(C)C(=O)c1cccnc1-c1ccc2c(c1)OCO2	-20.28
O=C(O)C(F)(F)F.O=C(O)C(F)(F)F.c1cnc(N2CCC3(CCN(CC4CCCC4)CC3)C2)nc1	-22.23
NS(=O)(=O)NCC1(c2ccccc2Br)CC1	-18.42
CC(Cn1ccnc1)NC(=O)NCCN1CCc2ccccc2C1 (configuration not stated)	-16.07
CC1CCN(C(=O)NCC(=O)N(C)CC(F)(F)F)C1 (configuration not stated)	-21.23
O=C(Nc1ccccc1-c1cccs1)N1CCOCC1	-24.79
CCNC(=O)[C@@H]1C[C@@H](N)CN1C(=O)c1[nH]c2ccccc2c1CC	-104.3
[H][C@@]12C[C@H](C(=O)NC)[C@@]([H])(CN(C(=O)Nc3ccccc3)C1)O2	-25.08
c1ccc(-c2noc(C3CCN(CCn4cccn4)CC3)n2)cc1	0.6328
COc1cccc(OCCNS(C)(=O)=O)c1	-16.99
CCN(CC)C(=O)CNC(=O)c1cnc(-c2ccccc2)nc1	3.724
CCC[C@H]1CN(CCS(C)(=O)=O)C[C@@H]1NC(=O)Cn1cc(C)cn1	-9.795
CCN(CC1CCOCC1)C(=O)Cn1cccc(C(F)(F)F)c1=O	16.48
Cc1cccc(C(=O)NCCNS(=O)(=O)c2cccs2)c1C	-19.26
CCC(c1ccc(F)cc1)N1CCn2c(CO)nnc2C1 (configuration not stated)	-3.079
CC1CN(S(=O)(=O)c2ccc(F)cc2F)c2cccnc2O1 (configuration not stated)	-28.73
COCCN1CC2(CCCN(Cc3cc(=O)c(OC)co3)C2)CCC1=O (configuration not stated)	-14.44
CCc1nc2n(n1)CC(NCc1nc3ccccc3nc1C)CC2 (configuration not stated)	-28.86
Fc1ccc(N2CCOC(Cc3cccnc3)C2)cc1 (configuration not stated)	-29.42
CC(C)(C)OC(=O)NCC1CCN(C(=O)c2ccccc2O)C1 (configuration not stated)	-18.37
Cc1noc(CN(Cc2cccs2)C2CCS(=O)(=O)C2)n1 (configuration not stated)	-20
CC(C)C(C)N1Cc2cccc(NCC(=O)N(C)C)c2C1 (configuration not stated)	-21.29
CCN(CC)CCNc1ncc(-c2cc(C)no2)c(-c2ccoc2C)n1	19.14
Cc1cnn(CC2CCCN2Cc2cc(=O)n3c(C)csc3n2)c1 (configuration not stated)	-44.28
Cc1cnc(C(=O)N2CCCC(c3nccn3Cc3cscn3)C2)cn1 (configuration not stated)	-19.42
CNc1nc2c(s1)C(=O)CN(C(=O)NCCc1ccccc1)C2	-4.888
CC(=O)NCC(=O)N1Cc2nccn2CC(COc2cccnc2)C1.O=C(O)C(F)(F)F (configuration not stated)	-12.22
CN(C)C(=O)N1Cc2ccccc2C2(CCNCC2)C1.Cl	-10.52

Source: ChEMBL document CHEMBL3988442, “University of Dundee, Small-Polar-MMV Screening Library” (2021).